# Laboratory results published in the supplement of paper PMC12823440, “Inhibitors supercharge kinase turnover through native proteolytic circuits” (Nature, 2025).
# Protein sequences, listed by entry. Tags and fused reporters are not part of them. Lines headed by an entry give the natural chain unless they say otherwise; changes in a name come on top.
# UniProt P07947, whole entry, looked up: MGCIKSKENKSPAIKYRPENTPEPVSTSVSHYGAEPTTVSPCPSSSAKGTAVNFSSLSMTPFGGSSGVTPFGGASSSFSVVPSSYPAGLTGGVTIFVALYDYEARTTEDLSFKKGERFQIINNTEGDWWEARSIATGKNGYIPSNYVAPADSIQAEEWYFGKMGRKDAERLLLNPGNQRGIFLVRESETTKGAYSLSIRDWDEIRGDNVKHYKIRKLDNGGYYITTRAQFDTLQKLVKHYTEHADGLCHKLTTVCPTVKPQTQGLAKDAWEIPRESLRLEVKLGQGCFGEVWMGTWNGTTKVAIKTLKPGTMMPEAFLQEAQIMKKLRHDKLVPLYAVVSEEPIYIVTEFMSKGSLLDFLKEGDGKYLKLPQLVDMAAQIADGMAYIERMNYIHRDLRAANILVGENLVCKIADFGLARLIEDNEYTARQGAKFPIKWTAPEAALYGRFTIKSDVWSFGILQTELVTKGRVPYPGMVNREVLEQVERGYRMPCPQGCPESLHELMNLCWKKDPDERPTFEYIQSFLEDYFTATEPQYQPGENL
# UniProt P43403: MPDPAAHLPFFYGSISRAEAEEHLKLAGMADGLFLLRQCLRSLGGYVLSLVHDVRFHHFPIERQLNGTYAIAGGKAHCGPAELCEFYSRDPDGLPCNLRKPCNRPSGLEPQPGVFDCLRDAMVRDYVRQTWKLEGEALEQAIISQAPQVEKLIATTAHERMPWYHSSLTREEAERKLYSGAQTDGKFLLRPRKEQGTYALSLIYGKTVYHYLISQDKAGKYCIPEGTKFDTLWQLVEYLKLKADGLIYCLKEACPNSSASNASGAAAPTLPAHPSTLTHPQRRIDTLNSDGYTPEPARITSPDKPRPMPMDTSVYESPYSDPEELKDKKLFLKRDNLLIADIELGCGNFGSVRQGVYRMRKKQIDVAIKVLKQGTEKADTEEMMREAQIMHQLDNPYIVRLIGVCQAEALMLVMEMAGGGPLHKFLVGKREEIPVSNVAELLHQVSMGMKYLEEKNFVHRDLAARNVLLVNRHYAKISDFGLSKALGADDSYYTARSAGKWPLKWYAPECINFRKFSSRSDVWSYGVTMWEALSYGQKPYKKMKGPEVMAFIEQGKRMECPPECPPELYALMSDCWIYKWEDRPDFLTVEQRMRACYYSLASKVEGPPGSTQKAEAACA
# UniProt P11802: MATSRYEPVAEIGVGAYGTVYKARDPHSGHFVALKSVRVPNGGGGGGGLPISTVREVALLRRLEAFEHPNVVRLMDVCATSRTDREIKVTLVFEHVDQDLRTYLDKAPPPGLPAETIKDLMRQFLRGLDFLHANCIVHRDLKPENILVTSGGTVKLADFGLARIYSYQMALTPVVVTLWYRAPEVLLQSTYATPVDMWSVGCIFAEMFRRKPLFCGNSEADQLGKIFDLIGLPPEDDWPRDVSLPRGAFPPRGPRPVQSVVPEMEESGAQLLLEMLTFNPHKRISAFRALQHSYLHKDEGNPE
# UniProt P50613: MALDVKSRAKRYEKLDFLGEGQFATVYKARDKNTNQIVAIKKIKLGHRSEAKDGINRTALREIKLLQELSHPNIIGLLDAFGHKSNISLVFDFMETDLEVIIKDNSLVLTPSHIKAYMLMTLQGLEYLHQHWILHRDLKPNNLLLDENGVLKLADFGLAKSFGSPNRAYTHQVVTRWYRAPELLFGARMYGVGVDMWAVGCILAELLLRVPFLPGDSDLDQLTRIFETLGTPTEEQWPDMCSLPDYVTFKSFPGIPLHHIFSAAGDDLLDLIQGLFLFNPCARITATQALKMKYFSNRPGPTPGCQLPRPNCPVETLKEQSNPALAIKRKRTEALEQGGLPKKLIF
# UniProt P50750, whole entry: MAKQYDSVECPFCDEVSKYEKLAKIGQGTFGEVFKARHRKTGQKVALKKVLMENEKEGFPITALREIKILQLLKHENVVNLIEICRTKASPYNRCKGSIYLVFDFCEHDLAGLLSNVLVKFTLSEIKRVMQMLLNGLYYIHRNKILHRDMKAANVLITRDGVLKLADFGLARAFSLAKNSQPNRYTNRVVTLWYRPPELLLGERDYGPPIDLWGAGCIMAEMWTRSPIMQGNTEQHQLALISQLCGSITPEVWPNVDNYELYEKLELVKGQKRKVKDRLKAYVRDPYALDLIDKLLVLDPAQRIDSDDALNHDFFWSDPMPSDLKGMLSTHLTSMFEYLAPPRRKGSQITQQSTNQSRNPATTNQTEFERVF
# Where a name gives a salt, the structure may show the parent alone. This is one part of the list. Hit calls seldom repeat between salt and free forms of one compound.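 Kinases, fused to nanoluciferase, were expressed in K562 cells; luminescence was measured every 4 h from 2 to 18 h as percent of control (DMSO = 100%, positive control = 0%). A time point is decreased if signal falls significantly (2 sigma). Hits were called by the authors by a rule that is not shown; the count of time points alone does not decide it.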
# Experiments:
# Settings in all cases: K562; 2-18 h
# YES1 = YES1 (UniProt P07947); test: number of time points (of 5) at which kinase-Nluc abundance scored as decreased, DMSO-normalised (count); higher = more persistent destabilization
# ZAK = ZAK (UniProt Q9NYL2); test: as above
# ZAP70 = ZAP70 (UniProt P43403); test: as above
# CDK4 = CDK4 (UniProt P11802); test: number of time points (of 4; 2 h point missing) at which kinase-Nluc abundance scored as decreased, DMSO-normalised (count); higher = more persistent destabilization
# CDK7 = CDK7 (UniProt P50613); test: as above
# CDK9 = CDK9 (UniProt P50750); test: as above
Compound,number of time points (YES1),number of time points (ZAK),number of time points (ZAP70),number of time points (CDK4),number of time points (CDK7),number of time points (CDK9)
Cc1cc(-c2cc(OC(=O)c3ccccc3)ccc2Cl)cc2nnc(Nc3ccc(OCCN4CCCC4)cc3)nc12 (0.5 µM),0,0,0,0,0,0
Cc1noc(C)c1-c1ccc(-c2cc(C(N)=O)c(NC(N)=O)s2)c(O[C@H]2CCNC2)c1 (10 µM),0,0,0,0,0,0
Cn1cc(Nc2nccc(N3C[C@H]4CC[C@@H](C3)N4C(=O)[C@@H]3CC3(F)F)n2)cn1 (10 µM),0,0,0,0,0,0
OCCNC1CCCc2c1[nH]c1ccc(-c3ccccc3)cc21 (stereo not drawn) (2.5 µM),0,0,0,0,2,0
COCCO[C@@H]1[C@H](O)[C@@H](CO)O[C@H]1n1cnc2c(=O)[nH]c(N)nc21 [2′-O-(2-Methoxyethyl)guanosine] (10 µM),0,0,0,0,0,0
O=C(Nc1cccnc1)c1cc(C(=O)c2c(F)cccc2Br)c[nH]1 (10 µM),0,0,0,0,0,0
Fc1ccc(-c2nc(-c3ccccc3F)[nH]c2-c2ccncc2)cc1 (2.5 µM),0,0,0,0,0,0
CCN(CC)c1ccc2cc(C(=O)N3CCN(C(=O)C4=Cc5c(Br)cccc5S4(=O)=O)CC3)c(=O)oc2c1 (2 µM),0,0,0,0,0,0
CC(C)(NS(=O)(=O)c1ccc2c(Cl)cnc(N=C(N)N)c2c1)C(=O)O (10 µM),0,0,0,0,0,0
O=C1NC(=O)C(=Cc2ccc(-c3ccc(F)cc3)o2)S1 (stereo in doubt) (10 µM),0,0,0,0,0,0
Cc1csc(-c2nnc(Nc3ccc(Oc4ncccc4-c4ccnc(N)n4)cc3)c3ccccc23)c1 (2.5 µM),0,0,0,0,0,0
Nc1cc(Nc2ccc(S(N)(=O)=O)cc2)ncn1 (10 µM),0,0,0,0,0,0
Cn1cnc(-c2cc3nccc(Oc4ccc(NC(=S)NC(=O)Cc5ccccc5)cc4F)c3s2)c1 [MGCD-265 analog] (10 µM),2,0,0,0,1,0
CNc1nc(Nc2cnn(C3CCN(C4COC4)CC3F)c2Cl)ncc1C(F)(F)F (stereo not drawn) (10 µM),0,0,0,0,0,0
COc1ccc(C2CC(c3ccccc3)=NN2c2ccc(S(N)(=O)=O)cc2)cc1 (stereo not drawn) (10 µM),0,0,0,0,0,0
Cc1cc2cc(Nc3ccnc(Nc4ccc5[nH]c(C)cc5c4)n3)ccc2[nH]1 (2.5 µM),0,0,0,0,0,0
COc1cccc(-n2c(=O)[nH]c3cc(Cl)n(-c4ccc(-c5cccc(OC)c5O)cc4)c3c2=O)c1 (2.5 µM),0,0,0,0,0,0
O=C(/C=C/c1ccc(O[C@@H]2O[C@H](CO)[C@@H](O)[C@H](O)[C@H]2O[C@@H]2OC[C@](O)(CO)[C@H]2O)cc1)c1ccc(O)cc1O [Isoliquiritin apioside] (10 µM),0,0,0,0,0,0
COC1(c2sc3c(N4CCOCC4)nc(-c4cnc(N)nc4)nc3c2C)COC1 (2.5 µM),0,0,0,0,2,0
O=C1c2ccc(Nc3ccc(F)cc3F)cc2CCc2ccc(OC[C@H](O)CO)cc21 [Skepinone-L] (2.5 µM),0,0,0,0,0,0
O=[N+]([O-])c1cc(C(F)(F)F)cc([N+](=O)[O-])c1NNC(=S)Nc1ccc(F)cc1 (10 µM),0,0,0,0,0,0
CCn1c(-c2nonc2N)nc2cnc(Oc3cccc(NC(=O)c4ccc(OCCN5CCOCC5)cc4)c3)cc21 (10 µM),0,0,0,0,2,0

# 2 records picked at random from those above, as already listed:
Compound,number of time points (YES1),number of time points (ZAK),number of time points (ZAP70),number of time points (CDK4),number of time points (CDK7),number of time points (CDK9)
O=C(Nc1cccnc1)c1cc(C(=O)c2c(F)cccc2Br)c[nH]1 (10 µM),0,0,0,0,0,0
O=C1c2ccc(Nc3ccc(F)cc3F)cc2CCc2ccc(OC[C@H](O)CO)cc21 [Skepinone-L] (2.5 µM),0,0,0,0,0,0

# Further compounds follow.

Compound,number of time points (YES1),number of time points (ZAK),number of time points (ZAP70),number of time points (CDK4),number of time points (CDK7),number of time points (CDK9)
O=C1NC(=O)/C(=C/c2ccc3c(c2)OC(F)(F)O3)S1 (10 µM),0,0,0,0,0,0
O=c1oc2cc(O)ccc2c2ccccc12 [Urolithin B] (10 µM),0,0,0,0,0,0
Nc1ncc(-c2cccc(N3CCNCC3)c2)cc1C(=O)Nc1ccncc1 [PKC-iota inhibitor 1] (10 µM),0,0,0,0,0,0
O=C(/C=C/c1ccc(O)c(O)c1)c1ccc(O[C@@H]2O[C@H](CO)[C@@H](O)[C@H](O)[C@H]2O)c(O)c1O [Marein] (10 µM),0,0,0,0,0,0
COc1ccc(Cn2cc(C(=O)N=Nc3c(O)[nH]c4c(C)cccc34)nn2)cc1 [MARK4 inhibitor 1] (10 µM),0,0,0,0,0,0
O=C(O)CCc1ccc(O)c(O)c1 [Dihydrocaffeic acid] (10 µM),0,0,0,0,0,0
Cn1nccc1Nc1nccc(-c2cc3c(s2)C(C)(C)N(CCN2CCOCC2)C3=O)n1 (10 µM),0,0,0,0,0,0
O=C(NCCCNc1nc(Nc2cccc(NC(=O)N3CCCC3)c2)ncc1I)c1cccs1 (2.5 µM),0,0,0,0,0,0
O=c1cc(O)cc(/C=C/c2ccc(O)c(O)c2)o1 [Hispidin] (10 µM),0,0,0,0,0,0
CC1CN(C(=O)Nc2ccc(Cl)c(Cl)c2)C(=Nc2ccc(F)cc2)S1 (stereo not drawn) (10 µM),0,0,0,0,0,0
N#CC(c1ccnc(NCCc2cccnc2)n1)c1nc2ccccc2s1 (stereo not drawn) (10 µM),0,0,0,0,0,0
CC(=O)N1CCN(c2cc(-c3cc(C(F)(F)F)c4c(N)ncnn34)ccc2C#N)C(=O)C1(C)C (10 µM),0,0,0,0,0,0
Cc1ccc(NC(=S)NNc2c([N+](=O)[O-])cc(C(F)(F)F)cc2[N+](=O)[O-])cc1Cl (10 µM),0,0,0,0,0,1
CN1CCN(c2ccc(Nc3ncc4nc(Nc5ccccc5)n([C@@H]5CCN(S(=O)(=O)C6CC6)C5)c4n3)cc2)CC1 (2.5 µM),0,0,0,0,0,0
CN(CCNc1ccc2ncc(-c3ccc(C(N)=O)cc3)n2n1)C(=O)OC(C)(C)C (10 µM),0,0,0,0,0,0
COc1ccc2[nH]cc(/C=C3\C(=O)Nc4ccc(NC(=O)CCN5CCCCC5)cc43)c2c1 (2.5 µM),0,0,0,0,0,0
CN(C)CCN(Cc1ccc(Cl)cc1)c1ccccn1 [Chloropyramine hydrochloride] (10 µM),0,0,0,0,0,0
CCOc1ccc(C(=O)Nc2ncc([N+](=O)[O-])s2)cc1 (10 µM),0,0,0,0,1,0
C=C1C(=O)O[C@@H]2C[C@@]3(C)CCC[C@H](C)C3=C[C@H]12 [Alantolactone] (10 µM),0,0,0,0,0,0
CC(C)CN(CC(=O)N1CCN(CC(OCc2ccc3ccccc3c2)c2ccc(Cl)cc2Cl)CC1)CC(C)C (stereo not drawn) [LYN-1604 (dihydrochloride)] (2.5 µM),0,0,0,0,0,0
Cc1cc(Nc2cc3ncccc3c(N[C@@H]3C[C@H]4CC[C@@H](C3)N4CCC#N)n2)n[nH]1 [Izencitinib] (10 µM),0,0,0,0,0,0
